Binding data for one substance are collected here from article PMC5853841.

This experiment deals with T1, AtSnRK1.1 (Arabidopsis) (UniProt Q38997).
T1 sequence: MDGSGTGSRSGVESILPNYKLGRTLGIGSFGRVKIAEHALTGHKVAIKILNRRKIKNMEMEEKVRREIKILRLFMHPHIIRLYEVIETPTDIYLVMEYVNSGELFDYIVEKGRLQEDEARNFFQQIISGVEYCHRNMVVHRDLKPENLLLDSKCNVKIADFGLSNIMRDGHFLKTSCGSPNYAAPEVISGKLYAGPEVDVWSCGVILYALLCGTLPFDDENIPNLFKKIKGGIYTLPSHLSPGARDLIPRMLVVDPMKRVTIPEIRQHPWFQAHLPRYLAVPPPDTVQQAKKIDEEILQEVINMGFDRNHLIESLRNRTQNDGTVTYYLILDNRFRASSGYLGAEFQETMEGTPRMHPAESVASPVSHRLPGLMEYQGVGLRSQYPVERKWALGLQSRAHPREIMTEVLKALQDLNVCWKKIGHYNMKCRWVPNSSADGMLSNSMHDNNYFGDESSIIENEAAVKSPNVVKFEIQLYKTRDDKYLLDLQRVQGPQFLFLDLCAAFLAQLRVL
The experiment in a line: two-hybrid; pairwise; baits in pGBT9, preys in pGAD424; -T/-L as transformation control, -T/-L/-H/-A as screen.

These are yes or no findings as the source states them, for the method shown. Binding calls can cover weak binding; strength is not graded here.

As for AtJAZ3 (Arabidopsis), the binding entry is recorded as “binds”.
